Experimental data published in patent US20240019437A1, “METHODS FOR THE DIAGNOSIS AND THE TREATMENT OF GRAFT-VERSUS-HOST DISEASE” (INSERM (INSTITUT NATIONAL DE LA SANTÉ ET DE LA RECHERCHE …, priority 2020, published 2024).
For at least one compound, name, drawing or mass did not settle the structure.

Tested on: healthy donor-derived PBMCs
Experiment: In vitro treatment of healthy donor-derived PBMCs with methylprednisolone; CD73 expression on T cell subsets by flow cytometry
Format: cell-based, human
Details: data not shown

## C[C@H]1C[C@@H]2[C@H]([C@@H](O)C[C@@]3(C)[C@H]2CC[C@]3(O)C(=O)CO)[C@@]2(C)C=CC(=O)C=C12 [methylprednisolone]
  CD73 expression on T cell subsets, including DP8α TREGS: did not alter CD73 expression on any T cell subset
